The record followed here is PMC8464071.

Sequences of proteins named here, by UniProt entry; tags and fusion partners are left off.
UniProt P12004: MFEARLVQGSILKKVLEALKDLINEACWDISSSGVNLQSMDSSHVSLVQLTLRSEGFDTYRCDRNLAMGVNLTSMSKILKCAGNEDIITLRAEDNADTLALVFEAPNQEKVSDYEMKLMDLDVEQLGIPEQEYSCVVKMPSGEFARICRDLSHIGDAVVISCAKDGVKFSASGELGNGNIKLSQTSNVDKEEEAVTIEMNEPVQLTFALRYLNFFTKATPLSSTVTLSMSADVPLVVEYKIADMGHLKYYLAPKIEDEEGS
UniProt P15927: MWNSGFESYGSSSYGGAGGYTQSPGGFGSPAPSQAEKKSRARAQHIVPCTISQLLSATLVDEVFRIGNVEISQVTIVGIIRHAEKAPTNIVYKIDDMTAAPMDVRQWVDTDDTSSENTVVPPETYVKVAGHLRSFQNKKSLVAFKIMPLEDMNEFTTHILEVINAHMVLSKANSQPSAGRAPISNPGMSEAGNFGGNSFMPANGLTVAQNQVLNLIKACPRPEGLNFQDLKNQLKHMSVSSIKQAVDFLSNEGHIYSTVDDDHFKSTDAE

No constants are given. Whether binding was seen depends on the method and setting. Binding seen in cells or lysates may run through a third protein. Some entries that bind do so weakly or less than the wild type.

For this experiment, the target named is XAB2 (human (endogenous in U2OS)) (UniProt Q9HCS7). Briefly: co-IP; Endogenous XAB2 precipitated from U2OS lysates (cells treated with DMSO or 1 uM CPT for 1 h) with rabbit anti-XAB2 antibody on Dynabeads Protein G, rabbit IgG as control; lysis buffer 20 mM Tris-HCl pH 7.8, 150 mM NaCl, 1 mM EDTA, 0.5% NP-40, with or without 0.2 mg/ml RNase A; 4 h at 4°C; washes with 500 mM NaCl; immunoblot of Ku70, PCNA, RPA32, XAB2. For orientation: In western blotting, separated proteins are transferred to a membrane and probed.
As for “Ku (from UniProt P12956 1-609; P13010 1-732) (complex)”, the binding entry is “binds”. For PCNA (from UniProt P12004 1-261) the value was “no binding”; for RPA32 (from UniProt P15927 1-270), “no binding”.
